The values that follow come from publication doi:10.1101/2025.01.31.635913.

Protein sequences, listed by entry. Tags and fused reporters are not part of them. Lines headed by an entry give the natural chain unless they say otherwise; changes in a name come on top.
UniProt O48538, whole entry: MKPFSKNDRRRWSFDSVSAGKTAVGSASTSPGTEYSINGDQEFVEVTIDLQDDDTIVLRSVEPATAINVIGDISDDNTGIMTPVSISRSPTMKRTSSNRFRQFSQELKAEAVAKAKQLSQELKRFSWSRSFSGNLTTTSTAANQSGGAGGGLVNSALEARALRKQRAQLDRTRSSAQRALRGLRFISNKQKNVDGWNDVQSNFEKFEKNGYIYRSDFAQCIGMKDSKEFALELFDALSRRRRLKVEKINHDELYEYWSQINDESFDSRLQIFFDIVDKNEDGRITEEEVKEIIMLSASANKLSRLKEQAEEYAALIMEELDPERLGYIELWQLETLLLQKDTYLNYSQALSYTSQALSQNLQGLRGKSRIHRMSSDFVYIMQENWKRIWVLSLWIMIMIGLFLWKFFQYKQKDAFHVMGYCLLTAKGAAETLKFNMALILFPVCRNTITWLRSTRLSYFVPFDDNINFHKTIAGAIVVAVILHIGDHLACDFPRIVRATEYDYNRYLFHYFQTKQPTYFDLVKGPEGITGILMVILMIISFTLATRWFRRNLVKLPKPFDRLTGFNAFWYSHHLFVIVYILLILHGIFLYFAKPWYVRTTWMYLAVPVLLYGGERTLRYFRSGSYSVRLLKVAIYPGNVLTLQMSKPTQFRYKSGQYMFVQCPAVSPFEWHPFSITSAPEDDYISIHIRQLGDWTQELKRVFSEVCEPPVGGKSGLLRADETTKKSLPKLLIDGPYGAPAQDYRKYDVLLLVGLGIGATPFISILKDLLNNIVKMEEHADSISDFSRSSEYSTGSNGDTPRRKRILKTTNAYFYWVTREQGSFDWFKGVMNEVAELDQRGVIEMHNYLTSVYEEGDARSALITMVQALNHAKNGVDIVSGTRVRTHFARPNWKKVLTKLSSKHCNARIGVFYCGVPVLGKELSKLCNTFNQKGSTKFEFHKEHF

These are yes or no findings as the source states them, for the method shown. In cells and extracts the contact can be indirect. Some entries that bind do so weakly or less than the wild type. Tags and fused reporters may be left off the sequences shown.

Assay in all cases: co-IP
The target of experiment [1] is T1, AtMC1^C220A-GFP (catalytically inactive AtMC1 fused to C-terminal GFP), transiently expressed in N. benthamiana (Arabidopsis thaliana) (UniProt Q7XJE6).
T1 sequence: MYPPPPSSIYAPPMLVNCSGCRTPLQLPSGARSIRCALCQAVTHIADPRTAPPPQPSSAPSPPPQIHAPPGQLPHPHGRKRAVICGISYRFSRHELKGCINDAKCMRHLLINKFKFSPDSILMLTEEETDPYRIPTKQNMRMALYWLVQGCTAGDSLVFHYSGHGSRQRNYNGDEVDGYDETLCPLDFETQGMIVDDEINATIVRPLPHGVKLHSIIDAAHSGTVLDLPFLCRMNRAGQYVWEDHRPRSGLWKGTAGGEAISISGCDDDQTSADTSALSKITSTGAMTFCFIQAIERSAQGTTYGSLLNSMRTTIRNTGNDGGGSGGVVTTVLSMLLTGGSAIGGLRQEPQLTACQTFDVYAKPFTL

The target of experiment [2] is T2, AtMC1^C220A-GFP (catalytically inactive AtMC1 fused to C-terminal GFP), stable Arabidopsis transgenic (Arabidopsis thaliana) (UniProt Q7XJE6).
T2 sequence: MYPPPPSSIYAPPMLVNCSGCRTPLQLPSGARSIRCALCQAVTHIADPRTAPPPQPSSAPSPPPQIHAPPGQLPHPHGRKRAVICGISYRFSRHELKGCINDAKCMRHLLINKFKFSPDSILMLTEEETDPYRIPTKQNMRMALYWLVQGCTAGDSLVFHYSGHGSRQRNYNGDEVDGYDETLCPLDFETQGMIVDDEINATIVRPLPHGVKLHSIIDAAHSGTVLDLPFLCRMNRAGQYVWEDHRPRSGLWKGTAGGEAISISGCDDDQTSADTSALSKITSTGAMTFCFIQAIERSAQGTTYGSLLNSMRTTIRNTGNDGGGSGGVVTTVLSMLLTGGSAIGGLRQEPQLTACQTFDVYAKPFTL

Experiment [3] deals with T3, AtMC1-GFP (Wt AtMC1 fused to C-terminal GFP), stable Arabidopsis transgenic (atmc1 35S::AtMC1-GFP) (Arabidopsis thaliana) (UniProt Q7XJE6).
T3 sequence: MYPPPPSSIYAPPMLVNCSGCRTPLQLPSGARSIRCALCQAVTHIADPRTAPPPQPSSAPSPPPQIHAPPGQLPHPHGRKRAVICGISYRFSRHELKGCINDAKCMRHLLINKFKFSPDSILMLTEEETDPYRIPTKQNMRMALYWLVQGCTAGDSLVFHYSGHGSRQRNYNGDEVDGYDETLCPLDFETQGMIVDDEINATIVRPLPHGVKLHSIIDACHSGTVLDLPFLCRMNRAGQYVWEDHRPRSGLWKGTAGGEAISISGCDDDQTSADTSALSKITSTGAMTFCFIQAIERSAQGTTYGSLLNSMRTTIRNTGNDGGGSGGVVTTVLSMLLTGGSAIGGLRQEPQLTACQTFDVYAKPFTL

Take “FLAG-RBOHF, transiently expressed in N. benthamiana (from UniProt O48538 1-944) (enzyme)”: in experiment [1], the binding entry is on record as “binds”.

B1: RPS2-HA expressed in Arabidopsis under its native promoter (proRPS2::RPS2-HA) (receptor, UniProt Q42484 1-909)
chain: MDFISSLIVGCAQVLCESMNMAERRGHKTDLRQAITDLETAIGDLKAIRDDLTLRIQQDGLEGRSCSNRAREWLSAVQVTETKTALLLVRFRRREQRTRMRRRYLSCFGCADYKLCKKVSAILKSIGELRERSEAIKTDGGSIQVTCREIPIKSVVGNTTMMEQVLEFLSEEEERGIIGVYGPGGVGKTTLMQSINNELITKGHQYDVLIWVQMSREFGECTIQQAVGARLGLSWDEKETGENRALKIYRALRQKRFLLLLDDVWEEIDLEKTGVPRPDRENKCKVMFTTRSIALCNNMGAEYKLRVEFLEKKHAWELFCSKVWRKDLLESSSIRRLAEIIVSKCGGLPLALITLGGAMAHRETEEEWIHASEVLTRFPAEMKGMNYVFALLKFSYDNLESDLLRSCFLYCALFPEEHSIEIEQLVEYWVGEGFLTSSHGVNTIYKGYFLIGDLKAACLLETGDEKTQVKMHNVVRSFALWMASEQGTYKELILVEPSMGHTEAPKAENWRQALVISLLDNRIQTLPEKLICPKLTTLMLQQNSSLKKIPTGFFMHMPVLRVLDLSFTSITEIPLSIKYLVELYHLSMSGTKISVLPQELGNLRKLKHLDLQRTQFLQTIPRDAICWLSKLEVLNLYYSYAGWELQSFGEDEAEELGFADLEYLENLTTLGITVLSLETLKTLFEFGALHKHIQHLHVEECNELLYFNLPSLTNHGRNLRRLSIKSCHDLEYLVTPADFENDWLPSLEVLTLHSLHNLTRVWGNSVSQDCLRNIRCINISHCNKLKNVSWVQKLPKLEVIELFDCREIEELISEHESPSVEDPTLFPSLKTLRTRDLPELNSILPSRFSFQKVETLVITNCPRVKKLPFQERRTQMNLPTVYCEEKWWKALEKDQPNEELCYLPRFVPN
Regarding B1, the binding result in experiment [2] and in experiment [3] was “binds” in each case.

B2: RPS2-HA, transiently expressed in N. benthamiana (receptor, UniProt Q42484 1-909)
chain: MDFISSLIVGCAQVLCESMNMAERRGHKTDLRQAITDLETAIGDLKAIRDDLTLRIQQDGLEGRSCSNRAREWLSAVQVTETKTALLLVRFRRREQRTRMRRRYLSCFGCADYKLCKKVSAILKSIGELRERSEAIKTDGGSIQVTCREIPIKSVVGNTTMMEQVLEFLSEEEERGIIGVYGPGGVGKTTLMQSINNELITKGHQYDVLIWVQMSREFGECTIQQAVGARLGLSWDEKETGENRALKIYRALRQKRFLLLLDDVWEEIDLEKTGVPRPDRENKCKVMFTTRSIALCNNMGAEYKLRVEFLEKKHAWELFCSKVWRKDLLESSSIRRLAEIIVSKCGGLPLALITLGGAMAHRETEEEWIHASEVLTRFPAEMKGMNYVFALLKFSYDNLESDLLRSCFLYCALFPEEHSIEIEQLVEYWVGEGFLTSSHGVNTIYKGYFLIGDLKAACLLETGDEKTQVKMHNVVRSFALWMASEQGTYKELILVEPSMGHTEAPKAENWRQALVISLLDNRIQTLPEKLICPKLTTLMLQQNSSLKKIPTGFFMHMPVLRVLDLSFTSITEIPLSIKYLVELYHLSMSGTKISVLPQELGNLRKLKHLDLQRTQFLQTIPRDAICWLSKLEVLNLYYSYAGWELQSFGEDEAEELGFADLEYLENLTTLGITVLSLETLKTLFEFGALHKHIQHLHVEECNELLYFNLPSLTNHGRNLRRLSIKSCHDLEYLVTPADFENDWLPSLEVLTLHSLHNLTRVWGNSVSQDCLRNIRCINISHCNKLKNVSWVQKLPKLEVIELFDCREIEELISEHESPSVEDPTLFPSLKTLRTRDLPELNSILPSRFSFQKVETLVITNCPRVKKLPFQERRTQMNLPTVYCEEKWWKALEKDQPNEELCYLPRFVPN
With B2, the binding result in experiment [1] was “binds”.

B3: 10xMyc-RLP42, transiently expressed in N. benthamiana (receptor, UniProt Q9LJS0 22-890)
chain: SSFFTFNNPAEGPGACGPHQIQAFTQFKNEFDTRACNHSDPWNGVWCDNSTGAVTMLQLRACLSGTLKPNSSLFQFHHLRSLLLPHNNFTSSSISSKFGMLNNLEVLSLSSSGFLAQVPFSFSNLSMLSALDLSKNELTGSLSFVRNLRKLRVLDVSYNHFSGILNPNSSLFELHHLIYLNLRYNNFTSSSLPYEFGNLNKLEVLDVSSNSFFGQVPPTISNLTQLTELYLPLNDFTGSLPLVQNLTKLSILHLFGNHFSGTIPSSLFTMPFLSSIYLNKNNLSGSIEVPNSSSSSRLEHLYLGKNHLGKILEPIAKLVNLKELDLSFLNTSHPIDLSLFSSLKSLLLLDLSGDWISKASLTLDSYIPSTLEVLRLEHCDISEFPNVFKTLHNLEYIALSNNRISGKFPEWLWSLPRLSSVFITDNLLTGFEGSSEVLVNSSVQILSLDTNSLEGALPHLPLSINYFSAIDNRFGGDIPLSICNRSSLDVLDLSYNNFSGQIPPCLSNLLYLKLRKNNLEGSIPDKYYVDTPLRSFDVGYNRLTGKLPRSLINCSALQFLSVDHNGIKDTFPFYLKALPKLQVLLLSSNEFYGPLSPPNQGPLGFPELRILEIAGNKLTGSLPPDFFVNWKASSHTMNEDLGLYMVYSKVIFGNYHLTYYETIDLRYKGLSMEQENVLTSSATIDLSGNRLEGEIPESLGLLKALIALNLSNNAFTGHIPLSLANLKKIESLDLSSNQLSGTIPNGLGTLSFLAYMNVSHNQLNGEIPQGTQITGQPKSSFEGNAGLCGFPLQESCFGTNAPPAQKPKEEEEAEEDEQELNWKAVAIGYGVGVLLGLAIAQLIASYKPEWLVCLVKSRNPLRSFFGFEY
In the case of B3, the binding entry in experiment [1] was “binds”.
